Measurements reported in PubChem BioAssay AID1508597 (Cure First, 2020).
Purpose: 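Genes whose silencing sensitises or protects ovarian cancer cells against rucaparib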 (primary screen). Cells: human ovarian carcinoma lines grown from tumours: OCI-P5x (papillary serous) and OCI-C5x (clear cell). Knock-down reagent: siRNA pool against human genes, 1.25 pmol siRNA per well. Duration: 72 h or 96 h, depending on the cell culture. Treatment: rucaparib 20 µM (about IC30) or vehicle, present until read-out. Rucaparib or vehicle: Vehicle. Cell line: OCI-C5x (clear cell). Read-out: 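Luminescent ATP-based viability assay read 72 or 96 h after transfection, depending on culture, given as normalised percent viability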. Scale: viability, normalised: higher = more viable cells remaining. Call rule: 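Active when normalised viability falls below 80 percent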. Calls: active = viability under 80%; inactive = viability 80% or more.
Shown is an unselected part of the about 2,100 reagents, in one setting of the screen. 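Calls flag viability under 80% in either arm, not effects specific to rucaparib; the reference for percent is not stated.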 Some reagents were tested in more than one well and are listed for each. No sequences are given here. Not stated in the record: the 100% reference.

PRKAR2B, technical replicate 1
- viability, normalised (%): 118
- Call: inactive

PRKAR2B, technical replicate 2
- viability, normalised (%): 93.8
- Call: inactive

PRKAR2B, technical replicate 3
- viability, normalised (%): 72.5
- Call: active

RNASEL, technical replicate 1
- viability, normalised (%): 65
- Call: active

RNASEL, technical replicate 2
- viability, normalised (%): 47.2
- Call: active

RNASEL, technical replicate 3
- viability, normalised (%): 48.3
- Call: active

ERBB2, technical replicate 1
- viability, normalised (%): 45.7
- Call: active

ERBB2, technical replicate 2
- viability, normalised (%): 38.8
- Call: active

ERBB2, technical replicate 3
- viability, normalised (%): 54.3
- Call: active

MAP3K15, technical replicate 1
- viability, normalised (%): 64
- Call: active

MAP3K15, technical replicate 2
- viability, normalised (%): 60
- Call: active

MAP3K15, technical replicate 3
- viability, normalised (%): 44.5
- Call: active

CLDN7, technical replicate 1
- viability, normalised (%): 34.7
- Call: active

CLDN7, technical replicate 2
- viability, normalised (%): 38.4
- Call: active

CLDN7, technical replicate 3
- viability, normalised (%): 37.5
- Call: active

Continued; the last 3 above are carried over.
CLDN7, technical replicate 1
- viability, normalised (%): 34.7
- Call: active

CLDN7, technical replicate 2
- viability, normalised (%): 38.4
- Call: active

CLDN7, technical replicate 3
- viability, normalised (%): 37.5
- Call: active

KMT2C, technical replicate 1
- viability, normalised (%): 23.5
- Call: active

KMT2C, technical replicate 2
- viability, normalised (%): 34.7
- Call: active

KMT2C, technical replicate 3
- viability, normalised (%): 36.2
- Call: active

TAF1, technical replicate 1
- viability, normalised (%): 40.3
- Call: active

TAF1, technical replicate 1
- viability, normalised (%): 61.8
- Call: active

TAF1, technical replicate 2
- viability, normalised (%): 54
- Call: active

TAF1, technical replicate 2
- viability, normalised (%): 58.2
- Call: active

TAF1, technical replicate 3
- viability, normalised (%): 49
- Call: active

TAF1, technical replicate 3
- viability, normalised (%): 39.1
- Call: active
